We go through one substance from paper PMC3414502.

Results are given in words; binding and its absence hold for the method and conditions named. In cells and extracts the contact can be indirect. Some entries that bind do so weakly or less than the wild type.

This assay deals with endogenous γ-synuclein (MDA-MB-231 cells) (human (endogenous in MDA-MB-231)) (UniProt O76070). Put plainly: co-IP; MDA MB 231 lysate (150 mM NaCl, 20 mM HEPES, 2 mM MgCl2); rabbit anti-γ-synuclein antibody on Protein A beads, 4 hours at 4°C; blotted with anti-γ-synuclein and anti-PLCβ2.

Regarding “endogenous phospholipase Cβ2 (MDA-MB-231 cells) (from UniProt Q00722 1-1185) (enzyme)”, the binding entry is reported as “binds”.
